Results from patent US20090325202A1, “Methods for Developing and Assessing Therapeutic Agents” (priority 2006, published 2009).
At least one structure is not confirmed: it was looked up by name or label, or the drawing left a doubt.

Tested on: ERK1/2
Test: Phospho-/total ERK1/2 ELISA in EGF-stimulated T-47D cell smears
Assay type: cell-based, human
Conditions: T-47D cells, LY294002 10 uM
Method: T47D cells were maintained in Dulbecco's modified Eagle's medium (Life Technologies, Inc.) supplemented with 10% fetal calf serum and antibiotics (Life Technologies, Inc.). Prior to EGF (Sigma) stimulation, cells were starved for 24 h in serum-free medium.
Total cell lysates were obtained from either cells cultured in vitro or from tumor FNAB samples. Protein extracts were resolved by 4-15% SDS-PAGE and probed with Rabbit anti-EGFR, anti-phospbo-EGFR, anti-ERK1 and anti-phospho-ERK antibodies obtained from New England Biolabs (Beverly, Mass.). Immunoreactive proteins were visualized by enhanced chemiluminescence (Amersham International, United Kingdom). Total and phospho-ERK1/2 proteins were quantified by sandwich [LISA kits (BioSource International, Camarillo, Calif., USA) as described in the manufacturer's protocols. The reaction was read at 450 nm in an ELISA plate reader.
Western blot analysis of protein samples is a conventional method for phosphoprotein analysis. However, Western blot analysis is limited in throughput and quantitative precision, and also requires large sample amounts. […] Therefore, it was tested if quantitative ELISA assays can be applied to cytologic samples to increase the assay sensitivity to measure the expression levels and activation status of specific signaling pathways. […]

O=c1cc(N2CCOCC2)oc2c(-c3ccccc3)cccc12 [LY294002]
inhibitory effect on EGF-induced ERK1/2 activity: did not have inhibitory effect
